No constants are given. Whether binding was seen depends on the method and setting. Tags and fused reporters may be left off the sequences shown.
Biological target: His6-AtICS2 (Arabidopsis thaliana isochorismate synthase 2, hexahistidine fusion, without the transit peptide) (Arabidopsis thaliana) (UniProt Q9M9V6)
Experiment: SEC; HiLoad 16/60 Superdex 200 preparative grade column with standards; 50 mM Tris-HCl pH 8.0, 500 µM EDTA, 10% v/v glycerol, 1 mM DTT; 4°C; 0.5 ml/min; both purified

B1: His6-AtICS2 (Arabidopsis thaliana isochorismate synthase 2, hexahistidine fusion, without the transit peptide) (enzyme, UniProt Q9M9V6 56-562)
chain: ADHKAPLGTVETRTLSTVPSPAAATERLITAVSDLKSQPPPFSSGIVRLQVPIEQKIGAIDWLHAQNEILPRSFFSRRSDSGRPDLLQDFSSDNGSSDHNPVSVAGIGSAVFFRDLDPFSHDDWRSIRRFLSSKSPLIRAYGGLRFDPTGKIAVEWEHFGSFYFTVPQVEFDEFGGSSMLAATVAWDNELSWTLENAIEALQETMLQVSSVIMRLRRESLGVIVVSKNHVPSEGAYYPAVNNALEIIKDKHSPLSKVVLARSSRIITDTDIDPIAWLARLQCEGQDAYQFCLQPPGAPAFIGNTPERLFHRKHLGVCSEALAATRPRGDSKVREMEIERDLLTSPKDDLEFSIVRENIREKLKTICDRVVVKPHKSVRKLARVQHLYSQLAGQLKREDDEFNILTALHPTPAVCGCPVEEARLLIKQIESFDRGMYAGPIGFFGGGESEFSVGIRSALVEKGLGALIYAGTGIVSGSNPSSEWNELELKISQFTKSLEHESALQPIN
- binding: no binding
